Laboratory results published in article PMC7695697.
No constants are given. Whether binding was seen depends on the method and setting. In cells and extracts the contact can be indirect. Some binding calls cover weakened binding; strength is not graded here.

Protein sequences, listed by entry. Tags and fused reporters are not part of them. Lines headed by an entry give the natural chain unless they say otherwise; changes in a name come on top.
UniProt P62873: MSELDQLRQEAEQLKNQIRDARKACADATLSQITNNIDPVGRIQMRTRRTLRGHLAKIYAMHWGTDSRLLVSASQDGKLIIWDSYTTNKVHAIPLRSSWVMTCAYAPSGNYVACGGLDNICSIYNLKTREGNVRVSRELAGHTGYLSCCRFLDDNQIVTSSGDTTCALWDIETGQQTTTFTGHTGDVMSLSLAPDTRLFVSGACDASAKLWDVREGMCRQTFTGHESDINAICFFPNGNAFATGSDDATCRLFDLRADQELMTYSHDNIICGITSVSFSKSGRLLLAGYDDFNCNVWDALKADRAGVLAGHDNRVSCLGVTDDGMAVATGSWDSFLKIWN
UniProt P63211: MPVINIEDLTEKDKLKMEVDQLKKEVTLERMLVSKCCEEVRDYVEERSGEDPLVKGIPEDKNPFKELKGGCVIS
UniProt Q03113: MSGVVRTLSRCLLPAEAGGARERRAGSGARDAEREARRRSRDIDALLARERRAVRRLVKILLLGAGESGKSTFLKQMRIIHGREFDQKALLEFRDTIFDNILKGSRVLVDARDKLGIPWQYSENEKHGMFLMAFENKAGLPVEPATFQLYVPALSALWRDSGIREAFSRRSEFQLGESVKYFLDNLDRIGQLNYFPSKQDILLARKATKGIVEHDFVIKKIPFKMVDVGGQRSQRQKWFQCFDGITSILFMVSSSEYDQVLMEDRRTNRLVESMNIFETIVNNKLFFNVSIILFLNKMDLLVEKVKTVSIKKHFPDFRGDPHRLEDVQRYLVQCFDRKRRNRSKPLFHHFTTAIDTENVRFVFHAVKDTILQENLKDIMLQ

Molecular target: βγ dimer of Gβ1 and GFP10-Gγ1 (human) (UniProt P62873+P63211)
Assay: FRET or BRET; BRET^2 between Gα-RlucII and GFP10-Gγ in living cells co-expressing PAR2 (human sensors with Gβ1 in HEK293 or HCT 116; mouse sensors in CMT-93); Tyrode Hepes buffer pH 7.4, 37 °C; hTrypsin, SLIGKV-NH2 or SLIGRL-NH2 for 1 min lowers the signal (separation of Gα from Gγ)

## Gα12-136-RlucII (from UniProt Q03113 1-381)
  binding: binds
